Assay results from publication PMC4973355.
These are yes or no findings as the source states them, for the method shown. Binding seen in cells or lysates may run through a third protein. A result given as binding can be weak or reduced; the word gives no strength. Sequences can lack the tags named with a protein.

Key:
[1] = biological target: T1, GST-2.SH3 domain of CD2AP (mouse) (UniProt Q9JLQ0); test: pull-down; GST fusions of CD2AP (NH2 terminus, individual SH3 domains) or GST alone; lysates of transiently transfected HEK293T cells; immunoblotting; only the target purified
T1 sequence: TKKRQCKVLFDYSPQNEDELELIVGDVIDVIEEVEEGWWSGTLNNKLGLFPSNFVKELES

[2] = biological target: T1, GST-2.SH3 domain of CD2AP (mouse); test: pull-down; GST-2.SH3 domain of CD2AP or GST alone; rat glomerular lysate with endogenous tankyrases; immunoblotting; only the target purified

Substance | binding [1] | binding [2]
Flag-tagged ankyrin domains of tankyrase 2 (domain or fragment) | binds | 
tankyrase 2 endogenously expressed in rat glomeruli (enzyme) |  | binds
tankyrase 1 endogenously expressed in rat glomeruli (enzyme) |  | binds
